# Measured data: PubChem BioAssay AID1159578 (Peter MacCallum Cancer Centre, 2015)
# Purpose: 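Genome-wide hunt for genes controlling movement of lymphatic endothelial cells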 (primary screen)
# Cell system: human lymphatic endothelial cells
# Reagent: siRNA pool against human genes, 40 nM
# Timing: 48 h after transfection
# Detection: 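High-content imaging of dye-stained cells in a scratch assay measures filled wound area and nuclei per well; duplicate means given as ratio to mock and robust z-score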
# Direction: migration robust z-score: higher = faster migration into the scratch; migration relative to mock: higher = more scratch area covered than mock; nuclei per well: higher = more cells in the well
# Active means: 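Pools averaging fewer than 3300 nuclei are never called; remaining pools count as changed when migration robust z lies outside -2 to 2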
# Meaning of the calls: active = migration changed; inactive = no migration change, or too few cells
# This is an unselected part of about 18,000 reagents. Over the whole deposit, about 1,030 (5.7%) were called active. 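Inactive calls also include pools with fewer than 3300 nuclei, whose migration was not assessed.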 Raw values are not corrected between plates.
Target gene,migration robust z-score,migration class with cell-count check,migration relative to mock,"nuclei per well, duplicate mean",activity call
SDR9C7 (short chain dehydrogenase/reductase family 9C member 7),4.02,migration z above 2; enough cells,1.58,6342,active
ST7 (suppression of tumorigenicity 7),-0.46,migration z between -2 and 2; enough cells,0.76,5652,inactive
SOX21 (SRY-box transcription factor 21),0.31,migration z between -2 and 2; enough cells,0.96,5492,inactive
INHBE (inhibin subunit beta E),-0.85,migration z between -2 and 2; enough cells,0.66,5464,inactive
C12orf57 (chromosome 12 open reading frame 57),1.87,migration z between -2 and 2; enough cells,1.37,6860,inactive
TBC1D10C (TBC1 domain family member 10C),-0.56,migration z between -2 and 2; enough cells,0.74,4783,inactive
ISG15 (ISG15 ubiquitin like modifier),-1.31,migration z between -2 and 2; enough cells,0.54,5330,inactive
FHL2 (four and a half LIM domains 2),-0.5,migration z between -2 and 2; enough cells,0.75,5485,inactive
UNC5B (unc-5 netrin receptor B),-0.49,migration z between -2 and 2; enough cells,0.71,3382,inactive
EOLA2 (endothelium and lymphocyte associated ASCH domain 2),-0.3,migration z between -2 and 2; enough cells,0.8,5808,inactive
CUL2 (cullin 2),-1.35,migration z between -2 and 2; enough cells,0.54,5220,inactive
SFSWAP (splicing factor SWAP),-2.02,migration z below -2; enough cells,0.36,3699,active
OR52E4 (olfactory receptor family 52 subfamily E member 4),-0.28,migration z between -2 and 2; enough cells,0.82,4530,inactive
INTS12 (integrator complex subunit 12),-1.01,migration z between -2 and 2; enough cells,0.61,4374,inactive
UBE3C (ubiquitin protein ligase E3C),1.61,migration z between -2 and 2; enough cells,1.11,5274,inactive
BCOR (BCL6 corepressor),-0.58,migration z between -2 and 2; enough cells,0.74,4732,inactive
CBX1 (chromobox 1),0.22,migration z between -2 and 2; enough cells,0.94,6076,inactive
MPI (mannose phosphate isomerase),-0.26,migration z between -2 and 2; enough cells,0.76,4896,inactive
CCSER2 (coiled-coil serine rich protein 2),0.52,migration z between -2 and 2; enough cells,1.02,5636,inactive
ASRGL1 (asparaginase and isoaspartyl peptidase 1),0.13,migration z between -2 and 2; enough cells,0.92,6208,inactive
CLU (clusterin),1.16,migration z between -2 and 2; enough cells,1.19,4560,inactive
JSRP1 (junctional sarcoplasmic reticulum protein 1),-0.32,migration z between -2 and 2; enough cells,0.8,5048,inactive
VWA2 (von Willebrand factor A domain containing 2),-1.49,migration z between -2 and 2; enough cells,0.5,5376,inactive
COL11A1 (collagen type XI alpha 1 chain),3.17,migration z above 2; enough cells,1.71,6727,active
RPN1 (ribophorin I),-1.94,migration z between -2 and 2; enough cells,0.43,3340,inactive
ZNF425 (zinc finger protein 425),-0.14,migration z between -2 and 2; enough cells,0.85,4678,inactive
GPR15 (G protein-coupled receptor 15),0.8,migration z between -2 and 2; enough cells,0.96,5718,inactive
VPS37A (VPS37A subunit of ESCRT-I),-0.26,migration z between -2 and 2; enough cells,0.82,6445,inactive
HYKK (hydroxylysine kinase),0.62,migration z between -2 and 2; enough cells,1.04,4905,inactive
TMEM70 (transmembrane protein 70),0.51,migration z between -2 and 2; enough cells,1.02,5438,inactive
FZD8 (frizzled class receptor 8),-1.02,migration z between -2 and 2; enough cells,0.61,4454,inactive
"PNPLA1 (patatin like domain 1, omega-hydroxyceramide transacylase)",-1.27,migration z between -2 and 2; enough cells,0.56,4802,inactive
SHLD1 (shieldin complex subunit 1),1.13,migration z between -2 and 2; enough cells,1.18,5657,inactive
TSSK6 (testis specific serine kinase 6),-2.23,under 3300 nuclei; migration not judged,0.38,2031,inactive
RNASE7 (ribonuclease A family member 7),-2.64,migration z below -2; enough cells,0.3,3407,active
COLEC11 (collectin subfamily member 11),1.79,migration z between -2 and 2; enough cells,1.35,6482,inactive
TFAP2A (transcription factor AP-2 alpha),-0.13,migration z between -2 and 2; enough cells,0.78,6778,inactive
TTC27 (tetratricopeptide repeat domain 27),-1.15,migration z between -2 and 2; enough cells,0.59,4192,inactive
MAPK8IP3 (mitogen-activated protein kinase 8 interacting protein 3),-0.78,migration z between -2 and 2; enough cells,0.68,4820,inactive
OOSP2 (oocyte secreted protein 2),-0.99,migration z between -2 and 2; enough cells,0.62,4742,inactive
OR4F21 (olfactory receptor family 4 subfamily F member 21),-0.11,migration z between -2 and 2; enough cells,0.86,5314,inactive
KDELR3 (KDEL endoplasmic reticulum protein retention receptor 3),-1.35,migration z between -2 and 2; enough cells,0.54,5442,inactive
GFRA2 (GDNF family receptor alpha 2),1.48,migration z between -2 and 2; enough cells,1.27,4818,inactive
GFRA1 (GDNF family receptor alpha 1),1.12,migration z between -2 and 2; enough cells,1.02,5536,inactive
EIF2AK1 (eukaryotic translation initiation factor 2 alpha kinase 1),0,migration z between -2 and 2; enough cells,0.8,5638,inactive
RGS8 (regulator of G protein signaling 8),0.4,migration z between -2 and 2; enough cells,0.99,5321,inactive
GOLGA5 (golgin A5),1.12,migration z between -2 and 2; enough cells,1.02,5821,inactive
IL36G (interleukin 36 gamma),0.81,migration z between -2 and 2; enough cells,1.1,6134,inactive
SORCS1 (sortilin related VPS10 domain containing receptor 1),1.27,migration z between -2 and 2; enough cells,1.05,7158,inactive
MLF1 (myeloid leukemia factor 1),-0.54,migration z between -2 and 2; enough cells,0.74,4956,inactive
SPATA33 (spermatogenesis associated 33),-1.69,migration z between -2 and 2; enough cells,0.44,4162,inactive
LCP1 (lymphocyte cytosolic protein 1),-0.44,migration z between -2 and 2; enough cells,0.77,5799,inactive
FXR2 (FMR1 autosomal homolog 2),-0.2,migration z between -2 and 2; enough cells,0.84,4858,inactive
FBXO40 (F-box protein 40),-1.27,migration z between -2 and 2; enough cells,0.56,5417,inactive
SNHG32 (small nucleolar RNA host gene 32),1.67,migration z between -2 and 2; enough cells,1.31,5411,inactive
HAUS7 (HAUS augmin like complex subunit 7),-0.76,under 3300 nuclei; migration not judged,0.68,2385,inactive
IFNA7 (interferon alpha 7),-1.02,migration z between -2 and 2; enough cells,0.62,5272,inactive

Reagents listed so far called active:
Target gene,migration robust z-score,migration class with cell-count check,migration relative to mock,"nuclei per well, duplicate mean",activity call
SDR9C7 (short chain dehydrogenase/reductase family 9C member 7),4.02,migration z above 2; enough cells,1.58,6342,active
SFSWAP (splicing factor SWAP),-2.02,migration z below -2; enough cells,0.36,3699,active
COL11A1 (collagen type XI alpha 1 chain),3.17,migration z above 2; enough cells,1.71,6727,active
RNASE7 (ribonuclease A family member 7),-2.64,migration z below -2; enough cells,0.3,3407,active
